The amount applied is not stated for every result.
Tests used:
[1] = tested on: SW480 cells; test: ATAC-seq chromatin accessibility; type: cell-based; conditions: SW480, vs. DMSO, 6 h
[2] = tested on: RKO cells; test: ATAC-seq chromatin accessibility; type: cell-based; conditions: vs. DMSO, 6 h

In the case of `CNC(=O)c1cc(Oc2ccc(NC(=O)Nc3ccc(Cl)c(C(F)(F)F)c3)c(F)c2)ccn1` [regorafenib], the “hyper-accessible regions (ATAC-seq)” value [1] is reported as 1408, the “hypo-accessible regions (ATAC-seq)” value [1] is reported as 1552 and the “hyper-accessible regions (ATAC-seq)” value [2] is reported as 277. For the same compound, the “hypo-accessible regions (ATAC-seq)” value [2] was 419.
